Source: the supplement of paper PMC10849652
The list shows a part of the results.

Sequences of proteins named here, by UniProt entry; tags and fusion partners are left off. A change or cut given only in a name is not applied to a line headed by its entry.
UniProt Q9BSF8: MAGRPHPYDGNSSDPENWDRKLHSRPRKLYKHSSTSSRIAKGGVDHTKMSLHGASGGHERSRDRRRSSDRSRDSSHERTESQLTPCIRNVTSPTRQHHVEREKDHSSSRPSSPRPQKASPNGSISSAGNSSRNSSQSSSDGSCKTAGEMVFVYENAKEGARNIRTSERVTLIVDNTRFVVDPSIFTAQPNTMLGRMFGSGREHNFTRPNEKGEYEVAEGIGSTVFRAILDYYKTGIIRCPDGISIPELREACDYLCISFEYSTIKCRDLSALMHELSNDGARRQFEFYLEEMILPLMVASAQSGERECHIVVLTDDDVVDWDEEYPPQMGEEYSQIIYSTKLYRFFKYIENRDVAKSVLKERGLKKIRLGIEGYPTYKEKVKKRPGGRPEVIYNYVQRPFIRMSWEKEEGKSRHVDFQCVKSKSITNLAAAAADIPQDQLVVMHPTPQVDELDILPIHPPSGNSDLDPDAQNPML
UniProt P0DMB2: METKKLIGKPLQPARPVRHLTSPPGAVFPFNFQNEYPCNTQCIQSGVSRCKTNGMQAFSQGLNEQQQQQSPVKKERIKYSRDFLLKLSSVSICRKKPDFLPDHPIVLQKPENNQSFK
UniProt Q7Z6I8: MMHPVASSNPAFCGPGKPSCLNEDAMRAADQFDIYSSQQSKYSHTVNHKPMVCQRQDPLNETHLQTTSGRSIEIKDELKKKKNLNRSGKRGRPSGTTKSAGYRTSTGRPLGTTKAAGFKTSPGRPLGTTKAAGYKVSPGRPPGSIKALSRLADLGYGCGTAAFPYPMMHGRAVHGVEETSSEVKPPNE
UniProt Q01518, whole entry, looked up: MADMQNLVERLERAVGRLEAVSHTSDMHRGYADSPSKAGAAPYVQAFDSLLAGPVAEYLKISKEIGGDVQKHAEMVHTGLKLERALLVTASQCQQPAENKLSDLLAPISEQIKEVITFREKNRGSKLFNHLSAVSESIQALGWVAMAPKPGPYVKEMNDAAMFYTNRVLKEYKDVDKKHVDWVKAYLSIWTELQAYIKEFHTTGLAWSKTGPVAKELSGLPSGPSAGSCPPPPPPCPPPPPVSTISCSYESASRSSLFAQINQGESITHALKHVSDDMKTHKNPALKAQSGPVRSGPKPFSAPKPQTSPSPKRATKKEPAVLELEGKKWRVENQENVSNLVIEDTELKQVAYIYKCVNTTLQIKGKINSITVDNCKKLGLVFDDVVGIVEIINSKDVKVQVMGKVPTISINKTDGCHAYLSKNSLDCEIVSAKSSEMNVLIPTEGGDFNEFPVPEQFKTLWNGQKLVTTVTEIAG
UniProt Q14012: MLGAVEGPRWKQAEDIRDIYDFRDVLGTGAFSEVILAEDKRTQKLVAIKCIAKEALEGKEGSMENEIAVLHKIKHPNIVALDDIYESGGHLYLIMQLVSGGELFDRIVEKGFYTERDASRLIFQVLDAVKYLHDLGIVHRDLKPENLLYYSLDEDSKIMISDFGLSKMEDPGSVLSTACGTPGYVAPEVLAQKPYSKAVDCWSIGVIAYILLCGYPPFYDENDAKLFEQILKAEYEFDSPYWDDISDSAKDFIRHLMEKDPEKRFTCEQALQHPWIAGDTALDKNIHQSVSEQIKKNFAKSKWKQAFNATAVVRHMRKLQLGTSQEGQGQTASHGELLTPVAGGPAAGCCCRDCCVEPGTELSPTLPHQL

Legend:
Assay in all cases: log2 fold change, soluble protein after heating vs DMSO (PISA); higher = thermal stabilisation; K562 cells, 10 uM, 30 min; active = over 0.2 and 3.5 SD of the protein, either way, in both replicates (recomputed)
[1] = compound: Cc1cccc(CC(=O)N2CCc3c2ccc(-c2cn(C)c4ncnc(N)c24)c3F)n1
Outline: (§1)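 K562 cells at 2×10^6 cells/mL were treated with 10 μM compound for 30 min. Aliquots were heated for 3 min across 48°C-58°C, pooled, and extracted in PBS with 0.5% NP-40 at 4°C; soluble protein was the supernatant after 21,000xg for 90 min. Soluble protein was quantified by TMTpro 16plex LC-MS/MS with channel sums equalised, and reported as log2 fold change in thermal stability against DMSO controls, with values from duplicates.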

dasatinib = compound: Cc1nc(Nc2ncc(C(=O)Nc3c(C)cccc3Cl)s2)cc(N2CCN(CCO)CC2)n1 [dasatinib]
Outline: as §1

tipifarnib = compound: Cn1cncc1[C@@](N)(c1ccc(Cl)cc1)c1ccc2c(c1)c(-c1cccc(Cl)c1)cc(=O)n2C [tipifarnib]
Outline: as §1

[2] = compound: NC(=O)c1cnc(N[C@@H]2CCCC[C@@H]2N)nc1Nc1cccc(-n2nccn2)c1
Outline: as §1

vorinostat = compound: O=C(CCCCCCC(=O)Nc1ccccc1)NO [vorinostat]
Outline: as §1

bafetinib = compound: Cc1ccc(NC(=O)c2ccc(CN3CC[C@H](N(C)C)C3)c(C(F)(F)F)c2)cc1Nc1nccc(-c2cncnc2)n1 [bafetinib]
Outline: as §1

[3] = compound: Cn1cc(-c2ccc3c(c2)CCN3C(=O)Cc2cccc(C(F)(F)F)c2)c2c(N)ncnc21
Outline: as §1

[4] = compound: Cn1cc(-c2ccc3nnc(C(F)(F)c4ccc5ncccc5c4)n3n2)cn1
Outline: as §1

mubritinib = compound: FC(F)(F)c1ccc(/C=C/c2nc(COc3ccc(CCCCn4ccnn4)cc3)co2)cc1 [mubritinib]
Outline: as §1

[5] = compound: NC1(c2ccc(-c3nc4ccn5c(=O)[nH]nc5c4cc3-c3ccccc3)cc2)CCC1
Outline: as §1

[6] = compound: NCC(=O)Nc1ccc(-n2nc(C(F)(F)F)cc2-c2ccc3c(ccc4ccccc43)c2)cc1
Outline: as §1

silmitasertib = compound: O=C(O)c1ccc2c(c1)nc(Nc1cccc(Cl)c1)c1ccncc12 [silmitasertib]
Outline: as §1

[7] = compound: O=C1NC(=O)C(c2cnc3ccccn23)=C1c1cn2c3c(cc(F)cc13)CN(C(=O)N1CCCCC1)CC2
Outline: as §1

nilotinib = compound: Cc1cn(-c2cc(NC(=O)c3ccc(C)c(Nc4nccc(-c5cccnc5)n4)c3)cc(C(F)(F)F)c2)cn1 [nilotinib]
Outline: as §1

[8] = compound: Cc1nc(Nc2n[nH]c3c2CN(C(=O)N[C@H](CN(C)C)c2ccccc2)C3(C)C)c2sccc2n1
Outline: as §1

[9] = compound: Cc1ncc(-c2ccnc(Nc3ccc(S(C)(=O)=O)cc3)n2)n1C(C)C
Outline: as §1

citarinostat = compound: O=C(CCCCCCNC(=O)c1cnc(N(c2ccccc2)c2ccccc2Cl)nc1)NO [citarinostat]
Outline: as §1

[10] = compound: c1cc(OCCN2CCCCC2)cc(-c2n[nH]c3ccc(-c4nnc[nH]4)cc23)c1
Outline: as §1

Measured: log2 fold change

BTBD10 isoform 2 (UniProt Q9BSF8)
inactive: [1] -0.227 | dasatinib 0.113 | tipifarnib 0.158 | [2] 0.158 | vorinostat -0.187

C8orf88 (UniProt P0DMB2)
inactive: bafetinib -0.156 | [1] -0.029 | [3] -0.436 | [4] -0.055 | tipifarnib 0.088 | mubritinib 0.23 | [2] -0.532 | [5] -0.07 | [6] -0.22 | vorinostat -0.029 | silmitasertib 0.195 | [7] 0.01

C5orf24 (UniProt Q7Z6I8)
inactive: [1] -0.033 | nilotinib -0.384 | [8] 0.43 | dasatinib 0.25 | [9] -0.538 | tipifarnib 0.159 | mubritinib 0.044 | [5] 0.07 | [6] 0.127 | vorinostat -0.012 | silmitasertib 0.219 | [7] -0.063

CAP1 isoform 2 (UniProt Q01518)
inactive: bafetinib 0.242 | mubritinib 0.156 | [5] -0.049 | silmitasertib 0.033

CA1 (UniProt E5RIF9)
inactive: bafetinib -0.042 | dasatinib -0.098 | [6] -0.029 | [7] -0.026

CAMK1 (UniProt Q14012)
inactive: bafetinib 0.166 | [4] 0.007 | citarinostat 0.152 | [10] 0.049
